Whole data set: some 3,200 compounds, median “TSA(without NAD+) / Primary screening (TSA) / delta Tm (K)” near -0.07, cut for the highest 2% near 0.37. The list shows a part of the results.
Biological target: NAD-dependent deacetylase Sirtuin 1 (human, UniProt Q96EB6)
Assay: primary screen, delta tm
Set-up: single well (n = 1)
Settings: 10 µM
Summary of the method: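 Thermal shift of Sirtuin 1 measured without NAD+, compound at 10 µM (n = 1); value is ΔTm, with hits defined as ΔTm > 0.45 K or < −1.5 K. Hits retested at 5, 10, 20 µM (n = 4) and counterscreened on bovine carbonic anhydrase and ABL1 SH2 domain.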

Protein sequences, listed by entry. Tags and fused reporters are not part of them. Residues count along the entry.
UniProt Q96EB6, 2-747 limits assumed: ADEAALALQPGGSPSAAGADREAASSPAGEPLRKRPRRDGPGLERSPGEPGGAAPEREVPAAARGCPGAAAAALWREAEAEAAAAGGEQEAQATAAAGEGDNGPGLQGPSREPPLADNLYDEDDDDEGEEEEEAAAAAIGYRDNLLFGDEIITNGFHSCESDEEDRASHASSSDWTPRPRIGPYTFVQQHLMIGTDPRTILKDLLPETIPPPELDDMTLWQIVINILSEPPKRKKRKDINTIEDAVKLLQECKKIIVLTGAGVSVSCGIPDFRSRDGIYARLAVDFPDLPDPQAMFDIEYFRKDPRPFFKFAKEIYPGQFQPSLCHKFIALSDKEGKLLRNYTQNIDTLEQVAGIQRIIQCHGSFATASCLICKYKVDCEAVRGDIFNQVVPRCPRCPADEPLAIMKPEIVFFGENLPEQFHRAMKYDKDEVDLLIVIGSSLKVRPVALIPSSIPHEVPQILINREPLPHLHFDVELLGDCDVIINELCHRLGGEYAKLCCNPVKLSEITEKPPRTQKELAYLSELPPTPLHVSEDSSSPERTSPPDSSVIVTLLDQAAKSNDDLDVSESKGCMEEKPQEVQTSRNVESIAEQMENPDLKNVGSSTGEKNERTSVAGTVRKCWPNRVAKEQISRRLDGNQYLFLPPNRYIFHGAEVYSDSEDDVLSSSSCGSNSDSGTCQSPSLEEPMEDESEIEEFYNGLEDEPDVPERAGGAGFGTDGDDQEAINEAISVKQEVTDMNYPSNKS

Row | SMILES | TSA(without NAD+) / Primary screening (TSA) / delta Tm (K)
1 | Cc1cc(-c2csc(NC(=O)c3ccc(NC(N)=O)cc3)n2)c(C)n1CCc1ccccc1 | 0.18
2 | N#Cc1ccc(Cl)cc1NC(=O)COC(=O)c1nc(-c2ccccc2)n(-c2ccccc2)n1 | 0.09
3 | CC(OC(=O)c1csc(-c2ccccc2)n1)C(=O)NCc1ccco1 (centres unmarked) | -0.14
4 | O=C1C(NCc2cscn2)CCCN1c1cccnc1 (centres unmarked) | -0.07
5 | Cc1ccc(Cn2nc(C)c(/C=C/C(=O)c3ccc(OC(C)C(=O)O)cc3)c2C)cc1 (centres unmarked) | -0.24
6 | Cc1cc(C)c(OC(=O)CCc2c(C)nc3c(C(N)=O)cnn3c2C)c(C)c1 | -0.05
7 | Cc1ccc(O)c(C(=O)N2CCC(=C3C(=O)Nc4ccccc43)CC2)c1 | 0.02
8 | O=C1NC(c2sc3ccccc3c2Cl)Nc2ccccc21 (centres unmarked) | -0.01
9 | Nc1nc(COC(=O)C2CCN(C(=O)NCc3ccco3)CC2)nc2ccccc12 | -0.13
10 | COc1ccc2nc(SCC(N)=O)[nH]c2c1 | -0.27
11 | CCCc1nc(CSc2nccn2Cc2ccccn2)cs1 | 0.06
12 | Cc1c(C(=O)O)sc2nc(SCC(=O)N3CCCC3)[nH]c(=O)c12 | 0.17
13 | CCOCCN | -0.02
14 | Cc1ccc(CNc2ncnc3ccsc23)cc1 | -0.23
15 | CC(=O)N1N=C(c2ccc(O)cc2)CC1c1ccco1 (centres unmarked) | -0.01
16 | Cc1ccc(C23CC4CC(CC(C(=O)OCC(N)=O)(C4)C2)C3)cc1C | -0.22
17 | COC(=O)Cn1c(=O)c(C(=O)COC(=O)C2CC(O)CN2S(=O)(=O)c2ccc3ccccc3c2)c(N)n(Cc2ccccc2)c1=O (centres unmarked) | -0.02
18 | CN(c1ccccc1C(N)=O)S(=O)(=O)c1ccc2c3c(cccc13)C(=O)N2 | -0.18
19 | COc1ccc(C(=O)C2=C(O)C(=O)N(CCCN3CCOCC3)C2c2ccc(C)cc2)cc1OC (centres unmarked) | -0.13
20 | c1ccc2c3c(ccc2c1)C(Nc1ccc2nnnn2n1)CCCO3 (centres unmarked) | 0.22

Row | SMILES | TSA(without NAD+) / Primary screening (TSA) / delta Tm (K)
21 | CCn1c(SCC(=O)NCc2cccs2)nc2ccsc2c1=O | -0.01
22 | CC(OC(=O)Cc1coc2cc(O)ccc12)C(=O)c1c[nH]c2ccccc12 (centres unmarked) | -0.04
23 | CC1CCCN(CCCNC(=O)CCc2cc3ccccc3[nH]c2=O)C1 (centres unmarked) | -0.13
24 | CCn1c(SC(C)C(=O)Nc2sc3c(c2C(N)=O)CCC3)nnc1N1CCOCC1 (centres unmarked) | -0.04
25 | Cc1nnc(N2CCN(C(=O)NC3CC3)CC2)c(C(N)=O)c1C | 0.05
26 | O=C1/C(=C/c2cccc(F)c2)Oc2cc(O)ccc21 | 0.09
27 | O=C(CSc1nnc(NC2CC2)s1)N(Cc1ccccc1)c1nc2c(s1)CCCC2 | -0.11
28 | NC(=O)NC(=O)CCN1CCN(CC(=O)Nc2ccccc2)CC1 | -0.14
29 | CCN(CC)S(=O)(=O)c1ccc(OC(C)C)c(NC(=O)CC23CC4CC(CC(O)(C4)C2)C3)c1 | -0.04
30 | COc1ccc(N(C)S(=O)(=O)c2cccc(C(=O)Nc3ccc(C)cc3)c2)cc1 | 0.17
31 | CN(C)S(=O)(=O)c1ccc(C(=O)C2=C(O)C(=O)N(CCN3CCOCC3)C2c2ccccc2)cc1 (centres unmarked) | -0.03
32 | CCN(CC(=O)Nc1ccc(OC)cc1)CC(=O)Nc1ccc(C(N)=O)cc1 | -0.31
33 | O=C(CN1CCN(C(=O)c2ccc(-c3ccc(F)cc3)o2)CC1)Nc1cccc(F)c1 | 0.22
34 | O=S(=O)([O-])CCS | -0.13
35 | O=c1c2ccccc2n2c(SCC3CCCCO3)nnc2n1Cc1ccccc1 (centres unmarked) | -0.21
36 | O=C1NC(=O)C(=Cc2cn(-c3ccccc3)nc2-c2cc3c(ccc4ccccc43)oc2=O)C(=O)N1 | -0.03
37 | CCc1nsc(N2CCC(Oc3ccnc(C(N)=O)c3)CC2)n1 | -0.15
38 | CNc1ncnc2ccsc12 | -0.01
39 | COCc1nc(NCC(c2ccc(OC)cc2)N2CCOCC2)c2c(-c3ccccc3)csc2n1 (centres unmarked) | -0.08
40 | O=C(CN1CCOCC1)N1CCN(Cc2ccc3c(c2)OCO3)CC1 | -0.02

Row | SMILES | TSA(without NAD+) / Primary screening (TSA) / delta Tm (K)
41 | CN1CCCN(c2ccc(NC(=O)NCCCNC(=O)c3cccc(O)c3)cc2F)CC1 | 0.02
42 | Cc1cc(C)nc(-n2nc(C)cc2NC(=O)CCc2ccc(S(=O)(=O)N3CCOCC3)cc2)n1 | -0.18
43 | COc1cccc(C#CCO)c1 | -0.22
44 | O=S(=O)([O-])CCl | -0.23
45 | Cc1ccccc1CNC(=O)CSc1nc2ccsc2c(=O)n1C | -0.17
46 | C[C@@H]1O[C@@H]1P(=O)([O-])[O-] | -0.07
47 | O=C(NCc1nnc2n1CCCCC2)c1ccc(-c2ccccc2)cc1 | -0.03
48 | CN(CC(=O)Nc1cccc2ccccc12)C(=O)C1=COCCO1 | -0.23
49 | C=CCNc1nnc(SCC(=O)N(Cc2ccccc2)c2nc3c(s2)CCCC3)s1 | 0.13
50 | O=C(CCc1c[nH]c2ccccc12)Nc1nnc(-c2ccccc2)o1 | 0.52
51 | O=C(Nc1ccc(F)cc1F)c1ccc(/C=N/c2ccc(F)cc2F)cc1 | -0.14
52 | Oc1ccccc1O | 0.06
53 | Cc1ccccc1C1CC1C(=O)N1C2C=C(c3ccccc3)CC1CC2 (centres unmarked) | -0.24
54 | COC(=O)Cn1c(CN2CCC(C(N)=O)CC2)nc2c1c(=O)n(C)c(=O)n2C | 0.05
55 | COC(=O)c1ccc2[nH]c(=O)[nH]c2c1OC | -0.07
56 | CC(CSc1nc2ccccc2o1)Cn1c(N2CCC(C(N)=O)CC2)nc2c1c(=O)[nH]c(=O)n2C (centres unmarked) | -0.14
57 | CCCOc1ccc(C2C(C(=O)c3ccco3)=C(O)C(=O)N2CCCN2CCOCC2)cc1 (centres unmarked) | -0.12
58 | O=C1/C(=C/c2ccccc2Br)Oc2cc(O)ccc21 | 0.03
59 | O=C1CC(Cc2ccc(NC(=O)c3cc4ccccc4[nH]3)cc2)C(=O)N1 (centres unmarked) | -0.02

Copied from the list:
Under TSA(without NAD+) / Primary screening (TSA) / delta Tm (K), `C[C@@H]1O[C@@H]1P(=O)([O-])[O-]` reads -0.07
Under TSA(without NAD+) / Primary screening (TSA) / delta Tm (K), `c1ccc2c3c(ccc2c1)C(Nc1ccc2nnnn2n1)CCCO3` (centres unmarked) reads 0.22
Under TSA(without NAD+) / Primary screening (TSA) / delta Tm (K), `CC(=O)N1N=C(c2ccc(O)cc2)CC1c1ccco1` (centres unmarked) reads -0.01
Under TSA(without NAD+) / Primary screening (TSA) / delta Tm (K), `CCN(CC)S(=O)(=O)c1ccc(OC(C)C)c(NC(=O)CC23CC4CC(CC(O)(C4)C2)C3)c1` reads -0.04
Under TSA(without NAD+) / Primary screening (TSA) / delta Tm (K), `Cc1cc(C)nc(-n2nc(C)cc2NC(=O)CCc2ccc(S(=O)(=O)N3CCOCC3)cc2)n1` reads -0.18

— publication PMC6925144, “A prospective compound screening contest identified broader inhibitors for Sirtuin 1” (Scientific Reports, 2019)
